The assay addresses CEP250 (human (endogenous in HEK293T)) (UniProt Q9BV73). The experiment in a line: co-IP; HEK293T cells transfected with the indicated plasmids (PHF5A-Y36E or PHF5A-Y36F co-expressed); CEP250 or Nek2A immunoprecipitated, Nek2A or CEP250 detected by immunoblotting; lysates in BC100 buffer.

By UniProt entry, the sequences of proteins in these tests, tags left out.
UniProt Q9BV73: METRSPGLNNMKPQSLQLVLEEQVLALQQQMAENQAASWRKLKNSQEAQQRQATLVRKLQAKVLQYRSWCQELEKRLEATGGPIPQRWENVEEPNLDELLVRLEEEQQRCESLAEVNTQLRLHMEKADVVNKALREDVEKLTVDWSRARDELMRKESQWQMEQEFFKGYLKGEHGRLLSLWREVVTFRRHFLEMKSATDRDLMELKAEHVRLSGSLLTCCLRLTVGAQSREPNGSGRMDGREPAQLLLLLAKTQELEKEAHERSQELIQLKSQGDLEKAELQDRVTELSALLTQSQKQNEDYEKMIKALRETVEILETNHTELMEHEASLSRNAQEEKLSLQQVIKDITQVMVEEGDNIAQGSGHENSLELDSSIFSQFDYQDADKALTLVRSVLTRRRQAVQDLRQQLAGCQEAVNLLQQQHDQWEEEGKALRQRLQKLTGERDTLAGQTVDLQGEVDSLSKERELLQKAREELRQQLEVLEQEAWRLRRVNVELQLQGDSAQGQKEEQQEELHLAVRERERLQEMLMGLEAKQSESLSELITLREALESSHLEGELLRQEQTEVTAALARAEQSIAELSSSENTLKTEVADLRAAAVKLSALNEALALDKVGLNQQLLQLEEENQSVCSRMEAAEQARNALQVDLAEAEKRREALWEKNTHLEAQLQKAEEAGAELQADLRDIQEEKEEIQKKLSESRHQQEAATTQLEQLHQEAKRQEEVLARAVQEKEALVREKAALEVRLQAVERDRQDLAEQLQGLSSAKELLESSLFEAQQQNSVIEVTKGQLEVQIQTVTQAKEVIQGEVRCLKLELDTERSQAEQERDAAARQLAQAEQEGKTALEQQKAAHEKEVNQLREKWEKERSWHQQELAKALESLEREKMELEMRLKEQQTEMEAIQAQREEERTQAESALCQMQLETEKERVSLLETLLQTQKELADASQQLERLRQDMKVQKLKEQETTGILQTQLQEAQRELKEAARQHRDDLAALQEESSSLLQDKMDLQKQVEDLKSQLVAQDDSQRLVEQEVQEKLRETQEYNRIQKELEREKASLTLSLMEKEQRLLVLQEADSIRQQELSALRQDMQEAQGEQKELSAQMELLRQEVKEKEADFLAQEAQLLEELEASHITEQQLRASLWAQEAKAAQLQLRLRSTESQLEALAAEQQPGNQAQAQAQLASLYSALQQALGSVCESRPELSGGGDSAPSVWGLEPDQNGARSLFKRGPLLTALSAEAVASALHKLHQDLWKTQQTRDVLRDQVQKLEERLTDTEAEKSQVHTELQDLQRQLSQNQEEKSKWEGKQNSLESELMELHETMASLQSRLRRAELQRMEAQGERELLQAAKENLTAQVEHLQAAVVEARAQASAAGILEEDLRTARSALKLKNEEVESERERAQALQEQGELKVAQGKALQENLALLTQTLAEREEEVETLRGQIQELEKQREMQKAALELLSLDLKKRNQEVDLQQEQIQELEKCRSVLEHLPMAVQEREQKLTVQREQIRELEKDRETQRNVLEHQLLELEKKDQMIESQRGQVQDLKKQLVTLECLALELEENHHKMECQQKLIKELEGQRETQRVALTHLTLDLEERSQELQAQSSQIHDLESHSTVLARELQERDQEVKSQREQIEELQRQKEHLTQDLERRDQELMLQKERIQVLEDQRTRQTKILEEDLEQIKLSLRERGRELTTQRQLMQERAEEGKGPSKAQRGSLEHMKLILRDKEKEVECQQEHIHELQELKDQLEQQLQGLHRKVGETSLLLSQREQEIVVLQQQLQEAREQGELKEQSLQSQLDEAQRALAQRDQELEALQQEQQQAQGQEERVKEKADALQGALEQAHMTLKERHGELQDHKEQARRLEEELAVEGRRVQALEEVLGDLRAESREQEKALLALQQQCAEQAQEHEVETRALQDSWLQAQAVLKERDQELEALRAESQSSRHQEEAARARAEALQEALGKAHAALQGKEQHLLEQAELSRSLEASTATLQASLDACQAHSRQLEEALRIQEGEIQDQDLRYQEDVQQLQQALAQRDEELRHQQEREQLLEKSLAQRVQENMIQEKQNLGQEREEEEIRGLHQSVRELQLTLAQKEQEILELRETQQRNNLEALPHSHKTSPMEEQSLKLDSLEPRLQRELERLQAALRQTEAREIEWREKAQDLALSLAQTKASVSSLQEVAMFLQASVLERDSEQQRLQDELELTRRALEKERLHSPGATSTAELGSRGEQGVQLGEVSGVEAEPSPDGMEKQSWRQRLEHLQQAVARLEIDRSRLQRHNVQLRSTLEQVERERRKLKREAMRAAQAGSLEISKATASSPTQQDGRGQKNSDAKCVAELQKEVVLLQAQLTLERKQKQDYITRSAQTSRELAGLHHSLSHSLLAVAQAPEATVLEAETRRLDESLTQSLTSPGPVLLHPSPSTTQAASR

These are yes or no findings as the source states them, for the method shown. In cells and extracts the contact can be indirect. Some entries that bind do so weakly or less than the wild type.

B1: Nek2A (enzyme, UniProt P51955 1-445)
chain: MPSRAEDYEVLYTIGTGSYGRCQKIRRKSDGKILVWKELDYGSMTEAEKQMLVSEVNLLRELKHPNIVRYYDRIIDRTNTTLYIVMEYCEGGDLASVITKGTKERQYLDEEFVLRVMTQLTLALKECHRRSDGGHTVLHRDLKPANVFLDGKQNVKLGDFGLARILNHDTSFAKTFVGTPYYMSPEQMNRMSYNEKSDIWSLGCLLYELCALMPPFTAFSQKELAGKIREGKFRRIPYRYSDELNEIITRMLNLKDYHRPSVEEILENPLIADLVADEQRRNLERRGRQLGEPEKSQDSSPVLSELKLKEIQLQERERALKAREERLEQKEQELCVRERLAEDKLARAENLLKNYSLLKERKFLSLASNPELLNLPSSVIKKKVHFSGESKENIMRSENSESQLTSKSKCKDLKKRLHAAQLRAQALSDIEKNYQLKSRQILGMR
Turning to B1, the binding entry is recorded as “binds”.
